Drawing on patent EP1914307A2, this text covers binding for one molecule.

These are yes or no findings as the source states them, for the method shown. Binding can be weak; no strength is given.

In this assay the target is TY145 subtilase (Bacillus sp. TY145). Description: X-ray crystal structure of the complex.

B1: C12 inhibitor (protein, UniProt P01053 21-84, looked up)
chain: LKTEWPELVGKSVEEAKKVILQDKPEAQIIVLPVGTIVTMEYRIDRVRLFVDKLDNIAQVPRVG
B1: the binding result is reported as “binds”.
